Measurements reported in PubChem BioAssay AID1259259 (Sanger Institute, 2017)

- Screen: 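Kinome siRNA search for kinases essential alone or combined with trametinib, cetuximab or BYL719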 (primary screen)
- Cell system: SW1463 human colorectal cancer cells
- Reagent: siRNA pool against human genes
- Treatment: DMSO vehicle, or one anchor drug: BYL719 at 1 µM, cetuximab at 5 µg/ml, or trametinib at 10 nM
- Measurement: 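Viability relative to control pool 2 (non-targeting) averaged over replicates, robust z-score for knock-down with no drug, and for each anchor drug the mean synergy score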
- Scale: robust z-score, knock-down alone: higher = more viable cells after knock-down; viability, knock-down alone: higher = more viable cells; synergy score with BYL719 and synergy score with cetuximab and synergy score with trametinib: higher = stronger synergy (synthetic lethal) with drug
- Rule for the call: 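Knock-down called essential when its robust z-score without drug falls below -3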
- Meaning of the calls: active = essential: viability loss from knock-down alone; inactive = no change from knock-down alone
The whole screen tested 794 reagents; this is an unselected part. 9 of them (1.1%) count as active. 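Calls rest on knock-down alone, not drug synergy; viability values seem capped at 1.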 The record does not give: the amount of reagent, the time to read-out.

gene symbol,"robust z-score, knock-down alone","viability, knock-down alone (fraction of control)",synergy score with BYL719,synergy score with cetuximab,synergy score with trametinib,activity call
PDK2 (pyruvate dehydrogenase kinase 2),0.529,0.962,0.0941,0.063,-0.0385,inactive
MAP2K3 (mitogen-activated protein kinase kinase 3),0.19,0.94,-0.0267,0.174,0.206,inactive
PIK3R3 (phosphoinositide-3-kinase regulatory subunit 3),0.163,0.938,0.027,0.08,-0.00846,inactive
PIP5K1A (phosphatidylinositol-4-phosphate 5-kinase type 1 alpha),-1.93,0.804,-0.0427,0.0324,-0.148,inactive
STRADB (STE20 related adaptor beta),-0.58,0.89,-0.0701,0.171,0.0115,inactive
CDC7 (cell division cycle 7),-0.0643,0.924,0.232,0.271,0.189,inactive
CDC42BPG (CDC42 binding protein kinase gamma),-0.509,0.895,-0.0357,-0.0114,0.126,inactive
MED12 (mediator complex subunit 12),0.613,0.967,-0.033,0.0194,0.0792,inactive
BRD4 (bromodomain containing 4),-0.169,0.917,-0.0832,-0.0373,-0.0479,inactive
CLK1 (CDC like kinase 1),1.13,1,0,-0.0272,-0.0326,inactive
STK17A (serine/threonine kinase 17a),0.216,0.942,0.0476,0.105,0.357,inactive
PIK3CA,0.898,0.985,0.00454,0.0149,0.0247,inactive
"PIM2 (Pim-2 proto-oncogene, serine/threonine kinase)",0.534,0.962,0.143,0.239,0.207,inactive
NUP107 (nucleoporin 107),-3.24,0.72,0.0152,-0.0247,-0.0806,active
"MOS (MOS proto-oncogene, serine/threonine kinase)",-0.214,0.914,-0.00587,0.0921,0.0218,inactive
DGKI (diacylglycerol kinase iota),0.266,0.945,-0.0552,0.0177,0.0203,inactive
MAST1 (microtubule associated serine/threonine kinase 1),0.109,0.935,-0.039,-0.0908,-0.0212,inactive
JAK3 (Janus kinase 3),1.13,1,0.136,0.0317,0.111,inactive
PRKAG2 (protein kinase AMP-activated non-catalytic subunit gamma 2),0.67,0.971,-0.0171,0.0793,-0.0177,inactive
WNK1 (WNK lysine deficient protein kinase 1),1.13,1,0.0102,-0.0272,-0.0326,inactive
